Laboratory results as given in patent US20100113557A1.
These are yes or no findings as the source states them, for the method shown. For some assays here: In cells and extracts the contact can be indirect. Some entries that bind do so weakly or less than the wild type.

Protein sequences, listed by entry. Tags and fused reporters are not part of them.
UniProt P38398: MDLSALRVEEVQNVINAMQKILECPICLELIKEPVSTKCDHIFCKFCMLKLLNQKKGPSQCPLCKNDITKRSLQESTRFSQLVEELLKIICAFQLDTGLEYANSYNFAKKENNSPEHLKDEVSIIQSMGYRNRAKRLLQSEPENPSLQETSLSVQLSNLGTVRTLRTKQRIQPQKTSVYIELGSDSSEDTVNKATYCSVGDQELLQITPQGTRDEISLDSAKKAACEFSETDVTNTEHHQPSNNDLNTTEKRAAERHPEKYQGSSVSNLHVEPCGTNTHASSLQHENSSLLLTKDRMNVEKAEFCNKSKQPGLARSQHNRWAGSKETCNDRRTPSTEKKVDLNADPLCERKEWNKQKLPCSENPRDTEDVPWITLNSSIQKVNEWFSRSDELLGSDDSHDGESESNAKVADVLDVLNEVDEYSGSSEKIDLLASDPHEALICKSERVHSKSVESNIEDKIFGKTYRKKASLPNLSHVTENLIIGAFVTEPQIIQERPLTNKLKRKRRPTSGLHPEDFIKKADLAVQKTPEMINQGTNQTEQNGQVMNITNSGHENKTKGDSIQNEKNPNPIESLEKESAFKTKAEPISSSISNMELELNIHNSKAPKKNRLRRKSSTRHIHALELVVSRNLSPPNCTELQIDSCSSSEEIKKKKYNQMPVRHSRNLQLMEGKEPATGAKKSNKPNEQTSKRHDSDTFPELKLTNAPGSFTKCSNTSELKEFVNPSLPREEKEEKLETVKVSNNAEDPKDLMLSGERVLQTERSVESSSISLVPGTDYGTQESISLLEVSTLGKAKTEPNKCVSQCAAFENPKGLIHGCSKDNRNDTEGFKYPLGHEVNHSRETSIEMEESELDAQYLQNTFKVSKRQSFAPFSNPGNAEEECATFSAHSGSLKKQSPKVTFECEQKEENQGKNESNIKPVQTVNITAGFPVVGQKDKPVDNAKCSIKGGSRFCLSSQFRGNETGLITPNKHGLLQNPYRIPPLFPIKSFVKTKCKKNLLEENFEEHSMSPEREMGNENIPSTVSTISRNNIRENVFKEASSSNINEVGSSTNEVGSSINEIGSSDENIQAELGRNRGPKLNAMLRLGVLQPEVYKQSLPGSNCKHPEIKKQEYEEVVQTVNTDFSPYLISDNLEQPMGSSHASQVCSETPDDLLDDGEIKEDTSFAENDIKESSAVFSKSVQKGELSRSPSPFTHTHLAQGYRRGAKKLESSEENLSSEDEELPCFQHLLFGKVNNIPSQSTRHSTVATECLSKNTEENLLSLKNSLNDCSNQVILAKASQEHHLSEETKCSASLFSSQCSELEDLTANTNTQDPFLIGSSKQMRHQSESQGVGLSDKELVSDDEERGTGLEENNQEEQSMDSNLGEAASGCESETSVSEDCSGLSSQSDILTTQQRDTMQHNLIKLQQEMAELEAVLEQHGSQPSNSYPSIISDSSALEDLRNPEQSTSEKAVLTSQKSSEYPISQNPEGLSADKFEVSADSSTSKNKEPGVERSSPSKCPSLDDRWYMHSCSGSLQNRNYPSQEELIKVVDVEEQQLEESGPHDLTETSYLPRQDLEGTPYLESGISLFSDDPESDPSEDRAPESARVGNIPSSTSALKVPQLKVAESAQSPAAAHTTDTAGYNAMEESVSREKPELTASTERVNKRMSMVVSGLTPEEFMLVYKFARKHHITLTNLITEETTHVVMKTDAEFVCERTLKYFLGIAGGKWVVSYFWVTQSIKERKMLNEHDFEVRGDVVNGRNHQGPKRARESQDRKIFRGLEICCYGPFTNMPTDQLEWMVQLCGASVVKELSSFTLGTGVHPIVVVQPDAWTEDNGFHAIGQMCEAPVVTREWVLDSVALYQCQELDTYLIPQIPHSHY

Key:
FLAG-BRCA1 [1] = biological target: FLAG-BRCA1 (UniProt P38398); experiment: anti-FLAG immunoprecipitation of FLAG-BRCA1 from transfected 293T cells, LC/MS/MS
FLAG-BRCA1 [2] = biological target: FLAG-BRCA1 (UniProt P38398); experiment: anti-FLAG immunoprecipitation of FLAG-BRCA1 from MG132-treated 293T cells, LC/MS/MS of the immune complex
FLAG-BRCA1 [3] = biological target: FLAG-BRCA1 (UniProt P38398); experiment: co-immunoprecipitation (anti-FLAG, anti-Myc) and immunoblotting, transfected 293T cells
FLAG-BRCA1 [4] = biological target: FLAG-BRCA1 (UniProt P38398); experiment: reciprocal co-immunoprecipitation and Western blot, co-transfected 293T cells
FLAG-BRCA1 [5] = biological target: FLAG-BRCA1 (UniProt P38398); experiment: restates the co-immunoprecipitation result of Example 1

Substance	binding (FLAG-BRCA1 [1])	binding (FLAG-BRCA1 [2])	binding (FLAG-BRCA1 [3])	binding (FLAG-BRCA1 [4])	binding (FLAG-BRCA1 [5])
HERC2 (hect domain and RCC-like domain 2) (from UniProt O95714 1-4834) (enzyme)	binds	binds			
Myc-HERC2-CT (from UniProt O95714 4254-4834)			binds	binds	binds
